Assay results published in article PMC3474739, “Novel Frataxin Isoforms May Contribute to the Pathological Mechanism of Friedreich Ataxia” (PLoS ONE, 2012).
No constants are given. Whether binding was seen depends on the method and setting. In cells and extracts the contact can be indirect. Some results given as binding are weak or reduced against the parent protein; the word gives no strength.

Chains of the proteins cited; added tags and fusions are not shown. Residues count along the entry.
UniProt Q9H1K1, residues 35-167: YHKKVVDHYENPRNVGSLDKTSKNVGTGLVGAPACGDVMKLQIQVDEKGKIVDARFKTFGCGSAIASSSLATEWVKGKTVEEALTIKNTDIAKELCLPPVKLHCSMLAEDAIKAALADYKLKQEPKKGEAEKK
UniProt P0A6B7: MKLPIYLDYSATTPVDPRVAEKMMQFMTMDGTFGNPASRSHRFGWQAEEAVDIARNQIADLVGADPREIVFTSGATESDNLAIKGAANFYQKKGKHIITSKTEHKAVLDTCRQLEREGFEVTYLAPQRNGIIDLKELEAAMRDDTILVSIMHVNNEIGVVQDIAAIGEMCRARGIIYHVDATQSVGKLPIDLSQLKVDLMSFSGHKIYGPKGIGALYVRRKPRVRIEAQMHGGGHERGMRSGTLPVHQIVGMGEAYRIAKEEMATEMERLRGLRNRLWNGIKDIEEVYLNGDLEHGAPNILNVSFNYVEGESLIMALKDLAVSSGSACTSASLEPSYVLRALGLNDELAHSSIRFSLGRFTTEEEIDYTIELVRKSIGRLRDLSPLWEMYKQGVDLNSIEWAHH

Target: His-tagged human ISCU (human) (UniProt Q9H1K1)
Assay: pull-down; His-tagged human ISCU over-expressed in E. coli BL21(DE3) or CL100(DE3) (ΔiscS), alone or co-expressed with ISCS or ISCS+ISD11; single Ni-NTA affinity step; co-purified proteins confirmed by mass spectrometry

Substance: endogenous IscS of E. coli (from UniProt P0A6B7 1-404)
- binding: binds
